Test results taken from US20100035984A1, “Use of an antibacterial compound which is derived from alliaceae, as a natural additive in animal feed” (DMC Research Center, S.L., priority 2006, published 2010).
Some results were stated once for a whole list of compounds, not compound by compound.

Columns and labels:
[1] = test system: ruminal fermentation (methane-producing microorganisms); experiment: Production of gas by in vitro fermentation of the diets (Example 4); format: cell-based; conditions: diet D1, 24 and 48 hours
Procedure: The effect of different doses of the compounds object of study on the production of gas promoted by in vitro fermentation for 24 and 48 hours of the diets the composition of which is included in Table 1 is studied.

[2] = test system: microbiota of the ruminal inoculum (ruminal fluid of goats); experiment: In vitro ruminal degradation of experimental diets (Example 3); format: cell-based; conditions: diet D1, 48 hours
Procedure: The Effect of Different Doses of the Compounds Object of Study on the Ruminal Degradation of Two Different Diets the Composition of which is in Table 1 is Studied The diets consist of alfalfa hay (standard maintenance diet for ruminant animals) or of a mixture of 50% alfalfa hay and a commercial concentrate (standard lactation diet for ruminant animals). In vitro incubation is performed using ruminal fluid of goats as inoculum.

Substance | doses giving a significant decrease of the amount of gas produced by fermentation [1] | doses that affect the degradation of the diet [2]
propyl propylthiosulfonate [PTSO] | 25-50 ppm | greater than 25 ppm
propyl propylthiosulfinate [PTS] | 25-50 ppm | greater than 25 ppm
